Here are results for 1 molecule from US9513287.

Assay [1] concerns the target Shiga toxin 2a (Stx2a) holotoxin (Escherichia coli) (UniProt P09385). Nature of the assay: direct ELISA (FIG. 13B).
The target in assay [2] is Shiga toxin 1 (Stx1) (UniProt P08026). Put plainly: direct ELISA (FIG. 13B).
Assay [3] has as its target Shiga toxin 2a (Stx2a) holotoxin (Escherichia coli) (UniProt P09385). Nature of the assay: direct ELISA, wells coated with 250 ng/mL toxin, luminescent readout.
Assay [4] addresses Shiga toxin 1 (Stx1) (UniProt P08026). The assay is described as above.

Results are given in words; binding and its absence hold for the method and conditions named.

B1: monoclonal antibody Stx2f-1 (antibody, V domains shown)
VH: QVQLQQSGPEVVRPGVSVKISCKGSGYTFTDYAIHWVKQSHAKSLEWIGFISTYNGNPNYNKEFKGKATVTVDKSSSTAYLELARLTSEDSAIYFCARDFYGSSSWFAYWGQGTLVTVSA
VL: DIVLTQTPASLAVSLGQRATISCRASESVDSYGDDFMHWYQQKPGQPPKLLIYRVSNLESGIPVRFSGSGSRTDFTLTINPVEADDDATYYCQQSNENPYTFGGGTKLEIK
As to B1, the binding entry is given as “no binding (tested: antigen coated at 250 ng/mL)” in assay [1], “no binding (tested: antigen coated at 250 ng/mL)” with Shiga toxin 1 (Stx1) [2], “no binding” in assay [3] and “no binding” in the assay with Shiga toxin 1 (Stx1) [4].
